The test in a line: steroid-induced GRE reporter decrease in yeast – S. cerevisiae, luminescence, Hsp90 inhibitor project, dose response (AID 2400). The conditions noted are these: S. cerevisiae GRE-beta-galactosidase reporter, 75 min.

Some of the results follow. The source made no clear call on entries shown without one.

Consider `C[C@@H]1C[C@@H]2O[C@H]2/C=C\C=C\C(=O)Cc2c(Cl)c(O)cc(O)c2C(=O)O1`, for which the activity change, negative = inhibition (at 16 µM (top of the series)) was -45.3%. For `O=C(NNC1=C(C(=O)C(F)(F)F)CCC1)c1ccc(Br)cc1`, the activity change, negative = inhibition (at 15 µM (top of the series)) was -47.5%. With `O=C(NNC1=C(C(=O)C(F)(F)F)CCC1)c1ccc(Cl)cc1`, under “at 15 µM (top of the series)”, the activity change, negative = inhibition is -37.2%.

Source of the values: PubChem BioAssay AID2400 (Broad Institute, 2010).
